Some of the results follow. Single values are uncertain, as repeats are few or missing.
What follows are compounds tested on Saccharomyces cerevisiae BY4743 (assay: growth (OD600) relative to untreated control; higher = less growth inhibition). Conditions: compound concentration: 133 uM; 20 h.
Description: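 NMCCC compounds (133 uM, no IPBC) tested alone against Saccharomyces cerevisiae BY4743 in YPD, 96-well plates, starting OD600 ~0.1. Growth was read as OD600 at 20 h and expressed as % of the untreated control. Single pass.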

SMILES	growth
COC(=O)c1cc(CNC(=O)CSCc2c(C)noc2C)ccc1OC	95.5%
COC1=CC=C2N(C)\C=C(/C(=O)C2=C1)[S](=O)(=O)C3=CC=C(C)C=C3	90.4%
COc1ccc(C(=O)Nc2ccc(OC)c(Cl)c2)c(OC)n1	102%
Cc1cc(C)nc(SCc2nc(-c3ccccc3)no2)n1	97%
CCOC(=O)c1c(C)[nH]c(C(=O)OCC(=O)N2CCSC2c2ccccc2F)c1C (stereo not given)	105%
Cc1ccc(C(C)NC(=O)c2ccnn2C)c(C)c1 (stereo not given)	97.4%
Cc1cc(C)cc(OCC(=O)OC(C)C(=O)Nc2ccccc2C#N)c1 (stereo not given)	99.3%
COCCn1c(N2CCN(C)CC2)nc2c1c(=O)n(C)c(=O)n2C	95.2%
COCCN1\C=C(NC(=O)C2=CC3=C(CCC(C3)C(C)(C)C)S2)/C=C\C1=O (stereo not given)	111%
CCOC(=O)CNC(=O)c1sc2nc(C)cc(C)c2c1NC(=O)Cc1ccccc1	96%
CCOc1ccc2nc(SC3CCOC3=O)sc2c1 (stereo not given)	98.2%
Cc1cc(C)cc(NC(=O)CSc2nc(O)c3c(n2)CCCC3)c1	101%
COc1cccc(C(=O)Oc2c(S(=O)(=O)c3ccccc3)c(C)nn2C(C)(C)C)c1OC	102%
N#CCCN(C(=O)COc1ccc(F)c(Cl)c1)c1ccc2c(c1)OCCO2	109%
CCC1=CC=C(NC(=O)CN2\C=C/N(C(=O)C2=O)C3=CC(=CC(=C3)C)C)C=C1	89.5%
CCOC(=O)c1[nH]c(C)c(C(=O)N2CCC(CC(=O)NC(C)CC)CC2)c1C (stereo not given)	91.3%
Cc1ccc(NC(=O)C(Sc2nnc(C)n2C)c2ccccc2)cc1 (stereo not given)	99%
CCCCn1c(SCc2ccccn2)nc2cc(S(=O)(=O)N(C)C)ccc21	106%
Cc1ccc(S(=O)(=O)N(Cc2nc(-c3ccccc3)no2)C(C)C)cc1	67.4%
CCOC(=O)c1ccc(N2CCN(C(=O)COc3ccccc3)CC2)nc1	105%

In another format: two of the compounds above.
SMILES | growth
COc1ccc(C(=O)Nc2ccc(OC)c(Cl)c2)c(OC)n1 | 102%
COCCN1\C=C(NC(=O)C2=CC3=C(CCC(C3)C(C)(C)C)S2)/C=C\C1=O (stereo not given) | 111%

(more compounds)

SMILES	growth
CCOC(=O)C1(C)\C=C(\NC2=CC=CC(=C2)C)C(=O)N1C3=CC=CC=C3 (stereo not given)	91.6%
CC(Sc1nnc(NC2CC2)s1)C(=O)N(C)C1(C#N)CCCCC1 (stereo not given)	89%
CSc1nnc(-c2cccnc2)n1CCO	94.7%
COc1cc(C(=O)Nc2ccccc2OCC2CCCO2)cc(OC)c1OC (stereo not given)	99.7%
COc1cc(Br)c(OC)c(C(=O)NCc2c(C)nn(-c3ccccc3)c2C)c1	92.6%
Cc1c(C(=O)NC(C)CCc2ccccc2)oc2c1C(=O)CCC2 (stereo not given)	104%
COc1cc(OC)c(NC(=O)CCNS(=O)(=O)c2ccc3c(c2)CC(C)N3C(C)=O)cc1Cl (stereo not given)	106%
Cc1cc(NS(=O)(=O)c2c(C)nn(C)c2Cl)ccc1N1CCCC1=O	108%
CCC(Sc1nc2ccc[nH]c-2n1)C(=O)NCC1CCCO1 (stereo not given)	99.2%
CCc1c(C)nc(SCC(=O)N2CCN(c3ccccc3OC)CC2)nc1O	100%
CC(C)CCNC(=O)CS\C1=N\C2=C(SC=C2)C(=O)N1NC(=O)C3=CC=CC=C3	97.3%
CN(C)CCCN(C(=O)c1ccc(Br)s1)c1nc2ccc(F)cc2s1	4.1%
CNS(=O)(=O)Cc1ccc(CNC(=O)Nc2ccccc2F)cc1	90.1%
Cc1cccc(C)c1N1C(=O)N(CC(=O)NC(C)C)c2ccccc2S1(=O)=O	108%
CCN(CC(=O)NCc1cccs1)C(=O)c1ccc(-n2cccn2)cc1	105%
Cc1ccc2c(c1)N(C(=O)Nc1ccc(Br)cc1)CCO2	90.4%
CCOC(=O)C1=NOC\2=C1C(=O)N(C(C)C(=O)NC3=CC=CC(=C3C)Cl)C(=N2)\C (stereo not given)	89.4%
CNS(=O)(=O)c1cc(C(=O)N2CCN(S(=O)(=O)c3cc(OC)ccc3OC)CC2)n(C)c1	96.4%
CCCNC(=O)CN1CCN(C(=O)CCCc2nc3ccccc3s2)CC1	93%
COC(=O)c1cc(S(=O)(=O)Nc2cc(C)cc(C)c2)cn1C	105%

— the supplement of paper PMC8007513
